Entries after “also recorded” stand apart in the source; their conditions may differ.
Legend:
A2780 cells = assay: Platinum uptake by ICP-MS, A2780; assay type: cell-based, human; settings: 1 h; for platinum accumulated per cells: ICP-MS; for increase in uptake compared to Cisplatin: A2780, derivatives 10 microM vs Cisplatin 50 microM
[1] = test system: A2780 Ctr1- (# 348) cells; assay: Platinum uptake by ICP-MS, A2780 Ctr1- (clone #348); assay type: cell-based, human; settings: 1 h; for reduction in uptake upon Ctr1 silencing (clone #348) vs A2780: ICP-MS; for effect of Ctr1 silencing on uptake: A2780 Ctr1- clone #348 vs A2780, 10 microM

| SMILES | platinum accumulated per cells (A2780 cells; A2780, 50 microM) | reduction in uptake upon Ctr1 silencing (clone #348) vs A2780 [1] | platinum accumulated per cells (A2780 cells; A2780, 10 microM) | increase in uptake compared to Cisplatin (A2780 cells) | effect of Ctr1 silencing on uptake [1] |
| --- | --- | --- | --- | --- | --- |
| N.N.[Cl][Pt][Cl] [Cisplatin, cis-Diamminedichloroplatinum (II)] | 0.00014 platinum /cells | 30% |  |  |  |
| CCCCCCCCCCCC(=O)[O][Pt]([NH2])([NH2])([Cl])([Cl])[O]C(=O)CCCCCCCCCCC [RJY6, Cis, cis, trans-[diamminedichloro-bis-lauratoplatinum(IV)]] |  | 25% | 0.0054 platinum/cells | 30 fold | significantly lower |
| CCCCCCCC(=O)[O][Pt]([NH2])([NH2])([Cl])([Cl])[O]C(=O)CCCCCCC [RJY13, Cis, cis, trans-[diamminedichloro-bis-octanoatoplatinum (IV)]] |  |  | 0.0041 platinum/cells | 30 fold | not dependent on the presence of Ctr1 protein; also recorded: not affected |

Reference: paper PMC4763415, “Platinum (IV)-fatty acid conjugates overcome inherently and acquired Cisplatin resistant cancer cell lines: an in-vitro study” (BMC Cancer, 2016)
